Laboratory results as given in US20060251639A1.
These are yes or no findings as the source states them, for the method shown. Some entries that bind do so weakly or less than the wild type.

Protein sequences, listed by entry. Tags and fused reporters are not part of them. Lines headed by an entry give the natural chain unless they say otherwise; changes in a name come on top. Residues count along the entry.
UniProt Q9NNX6, residues 62-404: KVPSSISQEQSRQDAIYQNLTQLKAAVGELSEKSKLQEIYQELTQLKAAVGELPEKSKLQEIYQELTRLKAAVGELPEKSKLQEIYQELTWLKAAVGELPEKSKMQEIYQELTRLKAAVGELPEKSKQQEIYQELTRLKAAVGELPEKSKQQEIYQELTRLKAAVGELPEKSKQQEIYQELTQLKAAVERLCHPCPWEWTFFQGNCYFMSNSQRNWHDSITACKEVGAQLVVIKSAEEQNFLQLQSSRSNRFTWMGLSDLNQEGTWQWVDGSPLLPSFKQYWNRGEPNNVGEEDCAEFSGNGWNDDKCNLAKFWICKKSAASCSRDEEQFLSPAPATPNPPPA
UniProt B3EWN9: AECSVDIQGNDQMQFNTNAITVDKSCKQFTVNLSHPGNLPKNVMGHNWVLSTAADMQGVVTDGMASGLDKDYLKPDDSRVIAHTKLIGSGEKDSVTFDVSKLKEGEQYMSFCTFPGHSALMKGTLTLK
UniProt P13591, residues 20-718: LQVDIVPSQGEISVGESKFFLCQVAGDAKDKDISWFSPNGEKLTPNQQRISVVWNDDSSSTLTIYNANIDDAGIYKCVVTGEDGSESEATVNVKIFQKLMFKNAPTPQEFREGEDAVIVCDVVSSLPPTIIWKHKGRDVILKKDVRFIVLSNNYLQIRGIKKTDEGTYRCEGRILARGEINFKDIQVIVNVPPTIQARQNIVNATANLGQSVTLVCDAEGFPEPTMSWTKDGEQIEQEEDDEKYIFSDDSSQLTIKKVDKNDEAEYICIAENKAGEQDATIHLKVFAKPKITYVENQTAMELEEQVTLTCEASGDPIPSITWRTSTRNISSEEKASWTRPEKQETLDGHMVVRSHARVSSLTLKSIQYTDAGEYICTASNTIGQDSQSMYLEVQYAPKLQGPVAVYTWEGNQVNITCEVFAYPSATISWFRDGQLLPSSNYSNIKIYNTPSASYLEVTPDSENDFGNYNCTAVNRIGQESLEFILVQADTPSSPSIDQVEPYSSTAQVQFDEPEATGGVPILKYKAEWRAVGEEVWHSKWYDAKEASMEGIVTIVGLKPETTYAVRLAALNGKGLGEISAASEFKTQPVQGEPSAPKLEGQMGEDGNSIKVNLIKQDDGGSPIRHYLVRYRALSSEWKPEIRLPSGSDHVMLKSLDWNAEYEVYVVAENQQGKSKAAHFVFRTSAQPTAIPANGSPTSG

T1: ICAM-3 (UniProt P32942)
T1 sequence (looked up): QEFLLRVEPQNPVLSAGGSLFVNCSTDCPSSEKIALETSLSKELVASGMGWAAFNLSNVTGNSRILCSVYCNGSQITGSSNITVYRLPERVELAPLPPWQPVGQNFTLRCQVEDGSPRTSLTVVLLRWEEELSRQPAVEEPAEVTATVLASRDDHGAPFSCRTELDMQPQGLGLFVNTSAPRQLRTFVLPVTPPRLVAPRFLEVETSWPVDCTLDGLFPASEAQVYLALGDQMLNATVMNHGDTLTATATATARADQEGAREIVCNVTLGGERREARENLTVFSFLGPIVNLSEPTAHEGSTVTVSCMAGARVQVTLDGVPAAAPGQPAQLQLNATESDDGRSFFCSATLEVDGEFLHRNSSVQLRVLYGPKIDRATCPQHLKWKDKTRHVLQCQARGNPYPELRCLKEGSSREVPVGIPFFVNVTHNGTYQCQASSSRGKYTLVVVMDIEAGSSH


Legend:
[1] = target: DC-SIGN (DC-specific intercellular adhesion molecule 3-grabbing nonintegrin) (UniProt Q9NNX6); assay: SPR, DC-SIGN immobilised on sensor chip
[2] = target: azurin from Pseudomonas aeruginosa (Pseudomonas aeruginosa) (UniProt P00282); assay: SPR, azurin immobilised on CM5 chip
[3] = target: T1, ICAM-3; assay: SPR

Molecule | binding [1] | binding [2] | binding [3]
GST-Azu 36-89 (from UniProt B3EWN9 36-89) | binds |  | 
NCAM (from UniProt P13591 20-718) (receptor) |  | binds | 
azurin from Pseudomonas aeruginosa (from UniProt P00282 21-148) | binds |  | binds
ICAM-3 (receptor, UniProt P32942 30-485, looked up) QEFLLRVEPQNPVLSAGGSLFVNCSTDCPSSEKIALETSLSKELVASGMGWAAFNLSNVTGNSRILCSVYCNGSQITGSSNITVYRLPERVELAPLPPWQPVGQNFTLRCQVEDGSPRTSLTVVLLRWEEELSRQPAVEEPAEVTATVLASRDDHGAPFSCRTELDMQPQGLGLFVNTSAPRQLRTFVLPVTPPRLVAPRFLEVETSWPVDCTLDGLFPASEAQVYLALGDQMLNATVMNHGDTLTATATATARADQEGAREIVCNVTLGGERREARENLTVFSFLGPIVNLSEPTAHEGSTVTVSCMAGARVQVTLDGVPAAAPGQPAQLQLNATESDDGRSFFCSATLEVDGEFLHRNSSVQLRVLYGPKIDRATCPQHLKWKDKTRHVLQCQARGNPYPELRCLKEGSSREVPVGIPFFVNVTHNGTYQCQASSSRGKYTLVVVMDIEAGSSH | binds | binds | 
